Five substances from paper PMC9503446, “Effects of Medicinal Leech-Related Cationic Antimicrobial Peptides on Human Blood Cells and Plasma” (Molecules, 2022) can be followed below.

Some entries repeat one wording, which the source may state once for all of them. No end group written: not given here.

The nature of the data set: Turbidity (optical density at 800 nm) of diluted plasma. The arrangement: species or system human. Particulars: peptide concentrations up to 200 μM.
On to “FLIGKAIKRKFCLRSVWNA [pept_7, synthetic short cationic antimicrobial peptide designed by bioinformatic analysis of the medicinal leech genome and microbiome]”, for which the “Aggregate formation (turbidity) in five-times diluted plasma” value (“Aggregate formation (turbidity)” for short) is “did not cause significant aggregate formation”. “KFKKVIWKSFL-NH2 (C-terminus assumed) [pept_4]”: the “Aggregate formation (turbidity)” value is listed as “did not cause significant aggregate formation”. The same measure for “RAVIYKIPYNAIASRWIIAPKKC [pept_8, synthetic short cationic antimicrobial peptide designed by bioinformatic analysis of the medicinal leech genome and microbiome]”: “did not cause significant aggregate formation”; for “RLKRFKRVALRREKTARNFRSIVS [pept_6, synthetic short cationic antimicrobial peptide designed by bioinformatic analysis of the medicinal leech genome and microbiome]”: “did not cause significant aggregate formation”.

For the substance “RPILIRVRRIRVI-NH2 (C-terminus assumed) [pept_5]”, the “Aggregate formation (turbidity)” value is “did not cause significant aggregate formation”.
